For four molecules, binding results are on record in article PMC12006399, “RNase1-driven ALK-activation is an oncogenic driver and therapeutic target in non-small cell lung cancer” (Signal Transduction and Targeted Therapy, 2025).

Protein sequences, listed by entry. Tags and fused reporters are not part of them. Residues count along the entry.
UniProt Q9UM73, residues 19-1620: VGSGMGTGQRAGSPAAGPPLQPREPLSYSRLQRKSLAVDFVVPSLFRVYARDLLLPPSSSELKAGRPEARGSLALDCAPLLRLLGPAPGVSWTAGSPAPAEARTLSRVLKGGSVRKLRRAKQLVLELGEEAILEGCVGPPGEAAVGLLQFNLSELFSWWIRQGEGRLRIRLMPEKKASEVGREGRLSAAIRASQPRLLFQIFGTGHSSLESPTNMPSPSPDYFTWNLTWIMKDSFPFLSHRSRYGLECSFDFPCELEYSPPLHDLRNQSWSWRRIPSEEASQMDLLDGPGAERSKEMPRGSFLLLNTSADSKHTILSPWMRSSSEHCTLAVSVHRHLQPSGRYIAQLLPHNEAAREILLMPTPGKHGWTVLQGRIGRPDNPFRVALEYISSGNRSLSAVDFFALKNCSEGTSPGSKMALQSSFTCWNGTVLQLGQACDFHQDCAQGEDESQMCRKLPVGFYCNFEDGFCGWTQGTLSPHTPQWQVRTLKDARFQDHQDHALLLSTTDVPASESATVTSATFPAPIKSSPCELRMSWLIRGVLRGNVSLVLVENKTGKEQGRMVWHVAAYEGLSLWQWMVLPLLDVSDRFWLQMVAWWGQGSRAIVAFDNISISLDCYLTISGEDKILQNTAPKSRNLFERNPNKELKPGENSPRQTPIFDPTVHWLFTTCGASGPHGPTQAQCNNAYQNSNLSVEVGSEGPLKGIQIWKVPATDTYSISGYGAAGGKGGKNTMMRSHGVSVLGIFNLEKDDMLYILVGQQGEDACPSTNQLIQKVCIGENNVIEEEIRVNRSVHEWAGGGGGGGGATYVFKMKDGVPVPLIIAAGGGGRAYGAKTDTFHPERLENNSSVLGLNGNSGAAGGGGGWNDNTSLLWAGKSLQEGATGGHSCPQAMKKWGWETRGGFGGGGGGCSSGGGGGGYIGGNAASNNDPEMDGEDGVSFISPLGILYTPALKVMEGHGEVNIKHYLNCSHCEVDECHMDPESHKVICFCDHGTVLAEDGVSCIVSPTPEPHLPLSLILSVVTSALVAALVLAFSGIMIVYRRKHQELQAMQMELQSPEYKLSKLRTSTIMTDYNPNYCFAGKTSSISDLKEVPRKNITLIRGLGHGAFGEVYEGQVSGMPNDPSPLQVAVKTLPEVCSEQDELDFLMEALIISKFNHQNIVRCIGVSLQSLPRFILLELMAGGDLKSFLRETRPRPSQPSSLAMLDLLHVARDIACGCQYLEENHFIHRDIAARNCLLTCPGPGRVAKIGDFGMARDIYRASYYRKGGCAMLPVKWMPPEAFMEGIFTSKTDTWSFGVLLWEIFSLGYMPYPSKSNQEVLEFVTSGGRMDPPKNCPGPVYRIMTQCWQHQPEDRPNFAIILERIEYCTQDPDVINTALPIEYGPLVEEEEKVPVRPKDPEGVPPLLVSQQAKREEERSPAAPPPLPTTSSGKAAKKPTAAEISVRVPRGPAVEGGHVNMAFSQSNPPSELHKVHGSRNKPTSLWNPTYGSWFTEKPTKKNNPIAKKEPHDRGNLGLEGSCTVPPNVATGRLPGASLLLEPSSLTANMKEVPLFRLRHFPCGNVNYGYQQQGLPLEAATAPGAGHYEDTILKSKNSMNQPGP

These are yes or no findings as the source states them, for the method shown. Binding seen in cells or lysates may run through a third protein. Some binding calls cover weakened binding; strength is not graded here. For some of these results: Tags and fused reporters may be left off the sequences shown.

Test [1] addresses T1, recombinantly purified 6x N-terminal His-tagged RNase1 (human) (UniProt P07998).
T1 sequence: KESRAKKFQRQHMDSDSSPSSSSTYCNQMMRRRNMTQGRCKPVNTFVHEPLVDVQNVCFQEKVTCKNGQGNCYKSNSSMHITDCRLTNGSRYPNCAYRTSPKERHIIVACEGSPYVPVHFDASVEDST
Briefly: pull-down; 10 µg of each purified N-terminal His-tagged RNase incubated with H1299 lysate, Ni-His beads pull down, Western blot; only the target purified.

Another test has as its target Myc-tagged ALK (UniProt Q9UM73). The test can be described thus: co-IP; HeLa cells transfected with Myc-tagged ALK and C-terminal Flag-tagged RNase1; lysates; RNase1 detected with the Flag antibody.
Test [2] addresses ALK in the co-IP of Fig. 1i (UniProt Q9UM73). The test can be described thus: co-IP; HEK293T cells transfected with wild-type or catalytic-deficient RNase1 plasmid; Western blotting.
Test [3] has as its target endogenous wild-type ALK in H1299 human lung cancer cells (human (endogenous in H1299)) (UniProt Q9UM73). Briefly: proximity ligation; Duolink In Situ Red kit on fixed H1299 cells with or without RNase1 expression; ALK and RNase1 antibodies.

“endogenous wild-type ALK in H1299 human lung cancer cells (from UniProt Q9UM73 19-1620) (receptor)”: in test [1], the binding entry is listed as “binds”.

B1: C-terminal Flag-tagged RNase1 (ligand, UniProt P07998 29-156)
chain: T1 sequence
Take B1: the binding result with Myc-tagged ALK is reported as “binds”.

B2: wild-type (WT) RNase1 expressed from a plasmid (Fig. 1i) (ligand, UniProt P07998 29-156)
chain: T1 sequence
As to B2, the binding entry in test [2] was “binds”.

B3: RNase1 expressed in H1299 cells (ligand, UniProt P07998 29-156)
chain: T1 sequence
Turning to B3, the binding entry in test [3] is reported as “binds”.
